PubChem BioAssay AID1259254 – NCATS, 2017
The whole screen tested about 59,000 reagents; this is an unselected part. Of all reagents, about 1,550 (2.6%) are marked active. 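G2 share is only a proxy for re-replication; each gene was hit by three separate siRNAs, and active genes were retested.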 The raw values are shown without normalisation. The numbers tell different reagents against one gene apart. Not stated in the record: the amount of reagent.

- Purpose: 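Genome-wide screen for genes that prevent DNA re-replication in cancer cells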 (primary screen)
- Cells: human HCT116 colorectal cancer cells
- Reagent: single siRNA against human genes
- Time to read-out: 3 days
- Measurement: 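Imaged Hoechst DNA stain sorts each cell into a cycle phase by DNA amount; per plate, G2 fraction set to 0% for non-targeting and 100% for GMNN siRNA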
- Scale: G2 robust z-score and G2 cells, % of GMNN control: higher = more G2 cells, more excess DNA replication; raw share of cells in G2: higher = larger share of cells with G2 DNA content
- Hit rule: 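Active siRNAs have a G2 robust z of 5 or more median absolute deviations over the median, which in these data means about 38% or higher of GMNN control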

no.	gene	reagent no.	G2 robust z-score	G2 cells, % of GMNN control	raw share of cells in G2 (%)	outcome
1	LOC644277 (GeneID 644277)	1	1.95	16.7	9.99	inactive
2	LOC644277 (GeneID 644277)	2	-0.802	-2.67	2.31	inactive
3	LOC644277 (GeneID 644277)	3	-0.411	0.0757	3.17	inactive
4	CNNM3 (GeneID 26505)	1	-0.729	-2.16	3.6	inactive
5	CNNM3 (GeneID 26505)	2	1.16	11.1	8.76	inactive
6	CNNM3 (GeneID 26505)	3	0.511	6.56	5.59	inactive
7	SUCLG2 (GeneID 8801)	1	-0.659	-1.67	3.78	inactive
8	SUCLG2 (GeneID 8801)	2	-0.0991	2.27	6.06	inactive
9	SUCLG2 (GeneID 8801)	3	0.824	8.76	7.85	inactive
10	SKINT1L (GeneID 391037)	1	1.68	14.8	10.9	inactive
11	SKINT1L (GeneID 391037)	2	7.23	53.8	23.4	active
12	SKINT1L (GeneID 391037)	3	0.229	4.58	5.33	inactive
13	FAM24A (GeneID 118670)	1	-0.439	-0.123	1.78	inactive
14	FAM24A (GeneID 118670)	2	1.21	11.5	8.69	inactive
15	FAM24A (GeneID 118670)	3	-0.52	-0.693	3.12	inactive
16	SYDE2 (GeneID 84144)	1	-0.503	-0.574	3.92	inactive
17	SYDE2 (GeneID 84144)	2	-0.806	-2.71	2.65	inactive
18	SYDE2 (GeneID 84144)	3	-0.41	0.0821	2.43	inactive
19	TTC9 (GeneID 23508)	1	-0.0696	2.48	7.36	inactive
20	TTC9 (GeneID 23508)	2	0.689	7.81	6.54	inactive
21	TTC9 (GeneID 23508)	3	1.23	11.6	8.05	inactive
22	SPECC1L (GeneID 23384)	1	2.69	21.9	12.6	inactive
23	SPECC1L (GeneID 23384)	2	-0.189	1.64	4.65	inactive
24	SPECC1L (GeneID 23384)	3	-0.942	-3.66	2.02	inactive
25	XPC (GeneID 7508)	1	2.79	22.6	15.1	inactive
26	XPC (GeneID 7508)	2	2.77	22.4	11.9	inactive
27	XPC (GeneID 7508)	3	0.587	7.1	6.9	inactive
28	GAN (GeneID 8139)	1	1.05	10.4	7.89	inactive
29	GAN (GeneID 8139)	2	-0.913	-3.45	2.98	inactive
30	GAN (GeneID 8139)	3	-0.586	-1.16	5.11	inactive
31	PMS2P3 (GeneID 5387)	1	-0.513	-0.641	4.76	inactive
32	PMS2P3 (GeneID 5387)	2	0.237	4.64	6.45	inactive
33	PMS2P3 (GeneID 5387)	3	-0.207	1.51	4.65	inactive
34	TFG (GeneID 10342)	1	-0.37	0.364	5.5	inactive
35	TFG (GeneID 10342)	2	-0.0204	2.82	5.12	inactive
36	TFG (GeneID 10342)	3	-0.561	-0.981	3.05	inactive
37	OGFOD3 (GeneID 79701)	1	3.98	30.9	17.3	inactive
38	OGFOD3 (GeneID 79701)	2	0.28	4.94	6.46	inactive
39	OGFOD3 (GeneID 79701)	3	-0.925	-3.54	1.41	inactive
40	RBM48 (GeneID 84060)	1	-0.288	0.941	2.69	inactive
41	RBM48 (GeneID 84060)	2	-0.989	-3.99	2.78	inactive
42	RBM48 (GeneID 84060)	3	-0.0811	2.4	4.17	inactive
43	SAP18 (GeneID 10284)	1	-0.239	1.29	6.26	inactive
44	SAP18 (GeneID 10284)	2	5.17	39.3	16.6	active
45	SAP18 (GeneID 10284)	3	1.97	16.8	13.1	inactive
46	MYCT1 (GeneID 80177)	1	1.28	12	9.42	inactive
47	MYCT1 (GeneID 80177)	2	0.981	9.87	8.62	inactive
48	MYCT1 (GeneID 80177)	3	2.57	21.1	8.14	inactive

Entries listed so far whose target name begins with R or r:
gene	reagent no.	G2 robust z-score	G2 cells, % of GMNN control	raw share of cells in G2 (%)	outcome
RBM48 (GeneID 84060)	1	-0.288	0.941	2.69	inactive
RBM48 (GeneID 84060)	2	-0.989	-3.99	2.78	inactive
RBM48 (GeneID 84060)	3	-0.0811	2.4	4.17	inactive
